Measurements reported in patent US20070072187A1, “Novel methods and apparatus for cell based microarray assays” (priority 2003, published 2007).
For at least one compound, name, drawing or mass did not settle the structure.

Tested on: Escherichia coli (strain XL2 Blue)
Assay: bacterial growth assay on porous support with nutrients supplied from a supply chamber (Syto9 staining)
Format: cell-based
Conditions: test area A, 200 ng rifampicin; 3 hours growth; x50 objective

## CO[C@H]1/C=C/O[C@@]2(C)Oc3c(C)c(O)c4c(O)c(c(/C=N/N5CCN(C)CC5)c(O)c4c3C2=O)NC(=O)/C(C)=C\C=C\[C@H](C)[C@H](O)[C@@H](C)[C@@H](O)[C@@H](C)[C@H](OC(C)=O)[C@@H]1C [rifampicin]
  bacterial density (high-powered imaging): bacterial density was low
